The target in this test is cBNP(1-32) coupled to azlactone beads (human). Briefly: KinExA, antibody passed over cBNP(1-32) coated azlactone beads, detected with Cy5: F(ab')2 goat anti-mouse IgG.

No constants are given. Whether binding was seen depends on the method and setting. Some results given as binding are weak or reduced against the parent protein; the word gives no strength.

B1: 3-631-436 WT mAb (antibody of hybridoma cell line 3-631-436, A.T.C.C. Accession No. PTA-6476) (antibody, V domains shown)
VH: QVQLQQPGAELVRPGASVKLSCKASGYTFTSYWMNWVKQRPEQGLEWIGRIDPYDSETHYNQKFKDKAILTVDKSSSTAFVQLTSLTSEDSAVYYCVSDGYWGAGTTCTVSS
VL: DVVMTQTPLTLSVTTGQPASISCKSSQSLLDSDGKTYLNWLFQRPGESPKLLIYVVSKLESGVPDRFTGSGSGTDFTLKISRVEAEDLGVYYCLQATHFPWTFGGGTKLEIKR
In the case of B1, the binding entry is “binds”.

For the origin of these results see patent US20090203038A1.
